In patent US20190307893A1, “NANOVESICLES WITH PORPHYRIN-LIPID CONJUGATE CORE” (UNIVERSITY HEALTH NETWORK, priority 2016, published 2019):
For part of these data: At least one structure is not confirmed: it was looked up by name or label, or the drawing left a doubt. Some entries share one result that the patent states for a list of compounds.

Experiments:
[1] = Dynamic light scattering size measurement of chlorin derivatives embedded in liposomes; format: physicochemical; conditions: 20% chlorin derivatives embedded within liposomes
Procedure: Lipid film was prepared in the 12 mm×35 mm clear glass threaded vials (Fisher Scientific) by combining 20% of chlorin derivatives (either Zn-MeO-chlorin acid 7, Zn-vinyl-chlorin lipid, MeO-chlorin lipid, or Zn-MeO-chlorin lipid) with 75% DPPC and 5% DPPE-mPEG2000 dissolved in MeOH or chloroform. The lipid solutions were dried under a stream of nitrogen gas for 30 min and further dried under vacuum desiccation for at least 3 h before hydration. One milliliter phosphate buffered saline (PBS) was added to the lipid films and 10 freeze and thaw cycles was performed by sequentially freezing the sample in liquid nitrogen, followed by rapid thawing in a 70° C. water bath. Dispersed particles were then subjected to extrusion by passing samples 10 times through a high pressure extruder loaded with 100 nm polycarbonate filter membranes at 70° C.
Z-average size and polydispersity of the samples in PBS were measured using a Malvern ZS90 (Instruments, UK). Absorption spectra of each sample was determined by UV spectroscopy (CARY 50 UV/Vis S3 Spectrophotometer, Varian Inc.). Absorption spectra of intact samples was measured in PBS, and that of detergent disrupted samples was measured after adding Triton-X100 so that the final detergent concentration was 0.1% v/v.

[2] = Dye recovery after extrusion of lipid nanovesicles; format: physicochemical

Row | Compound | PDI (polydispersity index) [1] | dye recovery rate after extrusion ([2]; highest loading percentage (20 mol %)) | dye recovery compared with Zn-MeO-chlorin lipid ([2]; loading percentages 1 to 20 mol %)
1 | Zinc 3-Devinyl-3′-methoxymethyl-13^2-demethoxycarbonylpheophorbide-a lipid [Zn-MeO-chlorin lipid] | less than 0.1 |  | 
2 | CCC1=C(C)C2=NC1=Cc1c(C)c3c4[n]1[Zn][n]1c(c(C)c(COC)c1=C2)=CC1=NC(=C4CC3=O)[C@@H](CCC(=O)O)[C@@H]1C [Zn-MeO-chlorin acid, Zinc 3-devinyl-3′-methoxymethy-13^2-demethoxycarbonylpheophorbide-a] |  | 20% | lower recovery than Zn-MeO-chlorin lipid
